Each structure is given as a SMILES string. Screen size: about 1,800 compounds; fewer than 10 were called active.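 How the source made its calls: active means inhibition of granule release above a set limit; inactive means the rest.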 This is one part of the list.

Consider 97 compounds from PubChem BioAssay AID651664 (NMMLSC, 2012).

The nature of this assay: LAMP-1 surface externalization blockers in TALL-104 cells – cell-based, flow cytometry, validation set (AID 651664). As to conditions: TALL-104 LAMP-1 externalization, at 15.2 µM, active compounds read high, stimulated with thapsigargin and PMA. A general note: Flow cytometry measures light scatter and fluorescence of single cells or particles in a stream.
For `Nc1c(N=Nc2ccccc2F)c(=O)[nH]n1-c1ccccc1`, the inhibition was inactive: -1%.
With `O=C(Nc1nc2ccc(Cl)cc2s1)c1ccc(Br)o1`, the inhibition is inactive: 6.4%.
With `COc1ccc2[nH]c(=O)c(CN(CC3CCCO3)C(=O)Nc3ccc(F)cc3)cc2c1` (configuration not stated) the figure was inactive: -0.2%; with `c1ccc(C(Cc2nc(-c3cccnc3)no2)c2ccccc2)cc1`, inactive: -0.9%.
For the compound `CCOC(=O)c1c(C)nc2sc(C(N)=O)c(N)c2c1-c1ccc(OC)cc1`, the inhibition is inactive: 2.1%.
Take `O=C(Oc1ccc(-c2cnc3ccccc3n2)cc1)c1ccc(Cl)c([N+](=O)[O-])c1`: the inhibition was inactive: 0.7%.
In the case of `CN(C(=O)C12CC3CC(CC(C3)C1)C2)C1(C)CCS(=O)(=O)C1` (configuration not stated), the inhibition was inactive: -1.6%.
In the case of `O=c1[nH]c(CO)nc2c1oc1ccccc12`, the inhibition is inactive: -3.5%.
`CC(C)N1C(=O)/C(=C/c2nc3ccccc3c(=O)n2-c2ccccc2)c2ccccc21`: the inhibition is inactive: -1%.
Take `Clc1ccc(Nc2nc(-c3ccncc3)cs2)cc1`: the inhibition was inactive: 2.3%.
In the case of `Cc1cc2ncn(CC(O)COC3CCCCC3)c2cc1C` (configuration not stated), the inhibition was inactive: -2.3%.
For `COc1ccc(Cl)cc1NC(=S)N1CCN(C(=O)c2ccco2)CC1`, the inhibition was inactive: -1.3%.
Consider `CCC(CO)NC(=O)c1cccc(S(=O)(=O)N2c3ccccc3CC2C)c1` (configuration not stated), for which the inhibition was inactive: 2.2%.
`O=C1CCCCC1C(Nc1ccc(Cl)cc1)c1ccccc1` (configuration not stated): the inhibition is inactive: 1.3%.
With `COc1cccc(/C=N/NC(=O)C(=O)N2CCCC2)c1OC`, the inhibition is inactive: -4.1%.
Turning to `CC1=C(C(=O)OCC(C)C)C(c2cccc(F)c2)N2C(=O)C(C)SC2=N1` (configuration not stated), the inhibition is inactive: 1.9%.
Consider `COc1cccc(NC(=O)Nc2cccs2)c1`, for which the inhibition is inactive: -0.5%.
`c1ccc(-n2ncc(-c3nn[nH]n3)n2)cc1`: the inhibition is inactive: 3%.
As for `C=CCn1c(=O)/c(=C2/SC(C)=C(C)N2CC)s/c1=C1/C(=O)N(CC)C(=S)N1c1ccccc1`, the inhibition was inactive: -2.3%.
With `O=C(Nc1cc(N2CCOCC2)ncn1)c1ccccc1`, the inhibition was inactive: 1.6%.
With `O=C(Nc1ccc2c(c1)OCO2)c1ccc(Cl)nc1`, the inhibition was inactive: -1.2%.
Consider `CCc1nc(SCC(=O)N2CCc3cc(OC)c(OC)cc3C2)c(C#N)cc1C`, for which the inhibition is inactive: -0.8%.
Consider `CCn1c(CSCc2ccc(F)cc2)nnc1SCC(=O)N1CCN(c2ccccc2)CC1`, for which the inhibition was inactive: -4.5%.
Consider `CCc1nc(SCC(=O)Nc2cc(C)on2)c2c(C)c(C)sc2n1`, for which the inhibition is inactive: -3.5%.
Take `Cc1ccc2nc(SCC(=O)Nc3cc(C(F)(F)F)ccc3N3CCOCC3)[nH]c2c1`: the inhibition was inactive: 1.1%.
In the case of `Cc1cc(NC(c2cccnc2)c2ccc3cccnc3c2O)no1` (configuration not stated), the inhibition is inactive: 0.3%.
In the case of `COc1ccc(CCNC(=O)C(C)Sc2ccccc2)cc1OC` (configuration not stated) it was inactive: -1.7%; in that of `c1ccc(NC2=Nc3ccccc3CS2)cc1`, inactive: 2.9%; in that of `CCN(CC)C(=O)C1CC(=O)N(c2ccc(F)c(Cl)c2)C1` (configuration not stated), inactive: -0.5%.
As for `CCc1nc(N2CCOCC2)c(C#N)c2c1COC(C)(C)C2`, the inhibition is inactive: 0.4%.
As to `C=CCn1c(C)cc(C(=O)CSc2nnc3c(Cl)cc(Cl)cn23)c1C`, the inhibition was inactive: -0.2%.
With `CCCn1nnc2sc3c(c2c1=O)CCC(C)C3` (configuration not stated), the inhibition was inactive: -2.7%.
For the compound `CCN(CC)CCN1C(=O)c2oc3ccccc3c(=O)c2C1c1ccc(C)cc1` (configuration not stated), the inhibition is inactive: 0.5%.
As to `COc1ccc2[nH]c(=O)c(CN(CCCN(C)C)C(=O)Nc3ccc(F)cc3)cc2c1`, the inhibition is inactive: -3%.
For the compound `O=C(NCc1cn2ccsc2n1)c1cccc(C(F)(F)F)c1`, the inhibition is inactive: -0.3%.
`Cc1ccc(Cn2ncc3c(N4CCCC4)ncnc32)cc1`: the inhibition is inactive: 0.5%.
In the case of `CCCC(=O)Nc1cccc(Oc2nc(C)cc(C)c2C#N)c1` it was inactive: 0.9%; in that of `Cc1ccc(C2C3=C(CC(C)(C)CC3=O)NC3=C2C(=O)CC(C)(C)C3)o1`, inactive: -3.1%.
With `COC(=O)c1ccccc1N/C=C1\CCc2c(c(C)nn2-c2ccccn2)C1=O` the figure was inactive: -2.2%; with `O=C(Cn1cnc2ccccc2c1=O)c1ccc2ccccc2c1`, inactive: 0%.
As to `CC(=O)c1ccc(N2CCN(C(=S)Nc3cccc(F)c3)CC2)cc1`, the inhibition is inactive: -2.9%.
Regarding `Cc1cccc(NC(=S)NNC(=O)CC(C)O)c1C` (configuration not stated), the inhibition is inactive: 1.1%.
For `Cc1[nH]c2ccccc2c1CCNC(=O)c1ccc2c(c1[N+](=O)[O-])C(=O)c1ccccc1C2=O`, the inhibition was inactive: 1.2%.
Consider `Cc1cc(N(CC(=O)O)S(C)(=O)=O)ccc1Br`, for which the inhibition was inactive: 0%.
In the case of `CCOC(=O)NCN1C(=O)C2C3C=CC(C3)C2C1=O` (configuration not stated) it was inactive: 4.9%; in that of `Cc1nnc(NCc2ccco2)c2ccccc12`, inactive: -3.2%.
In the case of `CCc1ccc(C2=NN(c3ccc(S(N)(=O)=O)cc3)C(c3ccc(F)cc3)C2)cc1` (configuration not stated), the inhibition is inactive: 18.8%.
With `CCCCOC(=O)C1C2C=C[C@]3(CN(C(C)c4ccc(OC)cc4)C(=O)[C@H]13)O2` (some centres not stated), the inhibition was inactive: -1.6%.
Consider `Cc1cc(=O)n2nc(N3CCCC(C(=O)NCc4ccco4)C3)sc2n1` (configuration not stated), for which the inhibition was inactive: -1.5%.
For `Cc1ccc([N+](=O)[O-])cc1NC(=O)c1ccc(-c2ccccc2)cc1`, the inhibition is inactive: 0.2%.
For the compound `Cc1ccc(C(=O)C2(C)C3c4cc(Br)ccc4OC(=O)C32C(=O)c2ccco2)cc1` (configuration not stated), the inhibition was active: 93.2%.
With `CCOc1cc(NC(=O)c2cccs2)c(OCC)cc1NC(=O)c1ccco1` the figure was inactive: -2.1%; with `C=CCNc1nc(SC)nc2ccsc12`, inactive: 1.1%; with `CC1CN(C(=O)N[C@@H](Cc2ccccc2)C(=O)O)CC(C)O1` (some centres not stated), inactive: -1.8%.
Consider `CCc1cc(=O)n2c([nH]c3ccccc32)c1C#N`, for which the inhibition was inactive: 0.1%.
In the case of `Cc1cnc(C(=O)Nc2nccs2)cn1` it was inactive: -2.2%; in that of `CCOc1cccc(C(=O)N(Cc2ccco2)C2CCS(=O)(=O)C2)c1` (configuration not stated), inactive: -1.1%.
As to `O=C1C(C=NCc2ccco2)=C(O)c2ccccc21`, the inhibition was inactive: -0.7%.
In the case of `COCCN1CN(S(=O)(=O)c2ccc(Cl)cc2)c2nc3ccccc3nc21` it was inactive: -1.9%.
In the case of `COCC(=O)Nc1nc2n(n1)C(c1ccc(Cl)cc1)CC(c1ccc(OC)cc1)N2` (configuration not stated), the inhibition is inactive: -1%.
As to `COc1ccc2c(c1OC)C(=O)N(c1ccccn1)C2`, the inhibition was inactive: -1.2%.
As for `COC(=O)[C@H](C)NC(=O)NCc1ccccc1F`, the inhibition was inactive: -2.4%.
As to `COc1ccc(/C=N/Nc2nc(C)c([N+](=O)[O-])c(N(C)c3ccccc3)n2)cc1OC`, the inhibition was inactive: -0.1%.
In the case of `NC(=O)SCC(=O)Nc1cccc(Cl)c1`, the inhibition is inactive: -0.9%.
As to `COCCn1c(N)c(NCc2ccccc2)c(=O)n(CC(=O)Nc2cc(C)ccc2C)c1=O`, the inhibition was inactive: -2.7%.
With `CCN(CC)C(=O)N1CCN(C(=O)c2ccc(C)cn2)CC1`, the inhibition was inactive: 3%.
As for `CC(C)CC(=O)N1CCN(S(C)(=O)=O)CC1`, the inhibition was inactive: -0.2%.
On to `CCOC(=O)C(CC)(CC)C(=O)/C=C/c1cccc(Br)c1`, for which the inhibition is inactive: -2.2%.
For `CCC(=O)Oc1cccc(C(=O)Nc2ccc(-c3nnc(-c4ccco4)o3)cc2)c1`, the inhibition was inactive: -1.3%.
In the case of `Cc1cccc(C(=O)NN2C(=O)C3C(c4ccccc4)C=CC(c4ccccc4)C3C2=O)c1` (configuration not stated) it was inactive: 0.2%; in that of `Cc1cc(NC(=O)COC(=O)C2CCN(S(=O)(=O)c3c(Cl)cccc3Cl)CC2)no1`, inactive: -3.4%.
In the case of `N#Cc1nc(-c2ccco2)oc1N1CCN(c2ccccc2)CC1` it was inactive: 11.5%; in that of `Nc1c(-c2ccccc2)cnn1-c1cccc(C(F)(F)F)c1`, inactive: 1.5%; in that of `CCCCSC(=S)N(C)C1CCS(=O)(=O)C1` (configuration not stated), inactive: -0.4%.
In the case of `CCCc1[nH]nc2c1C(c1cccnc1)C(C#N)=C(N)O2` (configuration not stated) it was inactive: 2.5%.
Take `CCN(CC)C(=S)Sc1c(-c2ccccc2)c2cc(Cl)ccc2[nH]c1=O`: the inhibition is inactive: 2.1%.
With `c1ccc(OCCCc2nc(-c3ccccn3)no2)cc1` the figure was inactive: -0.5%; with `Cc1ccc(Cl)cc1NC(=O)CSC(N)=O`, inactive: -3%; with `FC(F)(F)c1cccc(N2CCc3cn[nH]c32)c1`, inactive: -0.1%.
As to `CCOC(=O)C1CCN(S(=O)(=O)c2cccc(-c3csc(C)n3)c2)CC1`, the inhibition is inactive: -0.2%.
Turning to `Cc1ccc2c(c1Br)/C(=N/N1C(=O)c3ccccc3C1=O)C(=O)N2`, the inhibition was inactive: -3.6%.
Consider `O=S(=O)(NC1c2cccc3cccc(c23)C1N1CCN(CCO)CC1)c1ccccc1` (configuration not stated), for which the inhibition was inactive: -1.3%.
With `N#CC1=C(N)N(c2ccc(Oc3ccccc3)cc2)C(=O)C1`, the inhibition was inactive: 1.8%.
For the compound `CCOC(=O)c1cc(-c2ccccc2)sc1NC(=O)CN1C(=O)c2ccccc2C1=O`, the inhibition was inactive: -0.7%.
On to `O=C(CSc1nnc(-c2cccs2)n1-c1ccccc1)Nc1ccccc1`, for which the inhibition was inactive: 22.8%.
For the compound `CCN1C(=O)/C(=C/c2ccc(C)s2)SC1=Nc1ccc(OC)cc1`, the inhibition is inactive: 3.3%.
In the case of `c1csc(-c2cn3c(n2)SCC3)c1`, the inhibition was inactive: 0.4%.
As to `COc1ccc(S(=O)(=O)N(C)CC(=O)Nc2ccccc2C(F)(F)F)cc1OC`, the inhibition is inactive: -1.6%.
In the case of `CCN(CC)S(=O)(=O)c1ccc2c(c1)nc(CCC(=O)Nc1cccc(C(F)(F)F)c1)n2CC` it was inactive: -1.5%; in that of `CC1CCN(S(=O)(=O)c2ccc3c(c2)C(=NO)c2cc(S(=O)(=O)N4CCC(C)CC4)ccc2-3)CC1`, inactive: -3.3%; in that of `O=c1c(Cc2ccc(F)cc2)c(O)ccn1C1CCCCC1`, inactive: 0.2%.
As to `CCC1c2ccc(C)n2CCN1C(=O)Nc1ccccc1OC` (configuration not stated), the inhibition was inactive: 2.3%.
Turning to `Cc1onc(-c2c(F)cccc2Cl)c1C(=O)NCc1ccco1`, the inhibition is inactive: 4.1%.
In the case of `Cc1ccc(-c2nnc(-c3ccc(NC(=O)c4ccco4)cc3)o2)cc1` it was inactive: -3.9%; in that of `Cc1cc2nc(C)n(CCCNC(=O)Nc3ccc(C#N)cc3)c2cc1C`, inactive: 3.9%.
Consider `CC(C)(C)n1nnnc1C(c1cccnc1)N(Cc1ccccc1)Cc1ccco1` (configuration not stated), for which the inhibition was inactive: -3.9%.
For `O=S(=O)(/N=C(/Nc1cccc2ccccc12)c1ccccc1)c1cccs1`, the inhibition was inactive: -5.3%.

As a reminder, the inhibition is the change of the read-out against control, counted positive when it falls.
